The values that follow come from the supplement of paper PMC12819154, “High-throughput peptide-centric local stability assay extends protein–ligand identification to membrane proteins, tissues and bacteria” (Nature Structural & Molecular Biology, 2025).

Protein sequences, listed by entry. Tags and fused reporters are not part of them. Lines headed by an entry give the natural chain unless they say otherwise; changes in a name come on top.
UniProt Q05BV3: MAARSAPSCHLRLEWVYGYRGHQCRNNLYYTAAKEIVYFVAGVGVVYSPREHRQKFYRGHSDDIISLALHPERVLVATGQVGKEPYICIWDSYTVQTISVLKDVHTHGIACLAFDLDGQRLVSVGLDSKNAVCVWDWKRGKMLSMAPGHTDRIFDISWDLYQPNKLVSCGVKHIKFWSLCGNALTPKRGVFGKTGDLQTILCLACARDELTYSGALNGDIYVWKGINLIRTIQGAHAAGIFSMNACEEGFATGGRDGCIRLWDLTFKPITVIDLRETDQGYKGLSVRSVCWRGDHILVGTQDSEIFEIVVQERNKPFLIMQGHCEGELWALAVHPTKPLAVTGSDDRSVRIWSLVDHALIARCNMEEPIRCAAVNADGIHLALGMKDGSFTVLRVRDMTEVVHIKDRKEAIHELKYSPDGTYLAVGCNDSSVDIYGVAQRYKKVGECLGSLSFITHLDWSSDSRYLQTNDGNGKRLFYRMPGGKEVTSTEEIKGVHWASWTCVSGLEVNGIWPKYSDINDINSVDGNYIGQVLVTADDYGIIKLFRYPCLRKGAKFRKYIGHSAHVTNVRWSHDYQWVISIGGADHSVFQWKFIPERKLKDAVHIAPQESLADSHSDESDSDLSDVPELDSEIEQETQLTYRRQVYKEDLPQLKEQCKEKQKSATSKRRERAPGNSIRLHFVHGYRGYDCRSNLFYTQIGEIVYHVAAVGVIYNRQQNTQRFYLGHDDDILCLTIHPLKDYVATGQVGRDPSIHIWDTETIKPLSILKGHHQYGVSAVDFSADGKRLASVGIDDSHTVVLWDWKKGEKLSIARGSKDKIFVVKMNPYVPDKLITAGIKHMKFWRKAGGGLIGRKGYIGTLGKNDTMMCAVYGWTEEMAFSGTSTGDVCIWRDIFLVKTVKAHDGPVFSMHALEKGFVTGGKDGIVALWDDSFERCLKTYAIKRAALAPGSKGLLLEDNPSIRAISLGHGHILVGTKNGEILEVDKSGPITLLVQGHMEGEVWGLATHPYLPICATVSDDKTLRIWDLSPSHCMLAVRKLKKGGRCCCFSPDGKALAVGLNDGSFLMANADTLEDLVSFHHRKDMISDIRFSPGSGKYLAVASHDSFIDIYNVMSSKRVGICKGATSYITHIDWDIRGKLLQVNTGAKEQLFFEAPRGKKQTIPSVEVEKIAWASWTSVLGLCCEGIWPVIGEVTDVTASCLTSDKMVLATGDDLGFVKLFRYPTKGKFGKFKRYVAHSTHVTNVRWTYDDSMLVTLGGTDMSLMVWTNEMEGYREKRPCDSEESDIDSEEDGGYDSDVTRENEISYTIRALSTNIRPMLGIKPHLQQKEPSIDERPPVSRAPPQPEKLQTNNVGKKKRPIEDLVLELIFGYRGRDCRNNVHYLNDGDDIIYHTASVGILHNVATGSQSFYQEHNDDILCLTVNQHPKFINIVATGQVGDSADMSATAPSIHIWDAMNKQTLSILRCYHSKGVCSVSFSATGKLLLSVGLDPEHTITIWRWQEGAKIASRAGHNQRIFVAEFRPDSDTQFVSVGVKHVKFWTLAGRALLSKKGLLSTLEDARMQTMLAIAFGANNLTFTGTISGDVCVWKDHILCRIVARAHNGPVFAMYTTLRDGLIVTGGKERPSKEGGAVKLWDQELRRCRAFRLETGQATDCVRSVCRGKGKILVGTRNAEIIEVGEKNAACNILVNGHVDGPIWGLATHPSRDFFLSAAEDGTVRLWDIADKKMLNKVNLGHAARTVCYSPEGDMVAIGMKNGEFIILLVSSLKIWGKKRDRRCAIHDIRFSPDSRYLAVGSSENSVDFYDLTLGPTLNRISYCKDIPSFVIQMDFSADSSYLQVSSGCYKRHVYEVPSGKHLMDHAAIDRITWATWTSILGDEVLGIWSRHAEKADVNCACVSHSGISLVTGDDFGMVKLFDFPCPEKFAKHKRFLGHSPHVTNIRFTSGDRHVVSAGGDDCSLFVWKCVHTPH
UniProt Q03181: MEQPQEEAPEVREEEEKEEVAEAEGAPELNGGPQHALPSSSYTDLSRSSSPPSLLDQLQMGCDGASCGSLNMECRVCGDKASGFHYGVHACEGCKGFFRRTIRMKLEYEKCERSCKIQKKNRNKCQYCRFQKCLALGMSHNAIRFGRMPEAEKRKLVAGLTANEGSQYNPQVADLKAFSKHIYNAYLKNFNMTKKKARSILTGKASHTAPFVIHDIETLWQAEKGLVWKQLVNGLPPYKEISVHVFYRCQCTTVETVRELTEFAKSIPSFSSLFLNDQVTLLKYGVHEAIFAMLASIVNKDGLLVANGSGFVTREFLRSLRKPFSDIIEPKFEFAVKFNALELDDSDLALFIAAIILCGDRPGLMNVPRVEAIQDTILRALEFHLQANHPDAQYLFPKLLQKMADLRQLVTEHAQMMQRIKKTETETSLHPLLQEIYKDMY
UniProt Q12798: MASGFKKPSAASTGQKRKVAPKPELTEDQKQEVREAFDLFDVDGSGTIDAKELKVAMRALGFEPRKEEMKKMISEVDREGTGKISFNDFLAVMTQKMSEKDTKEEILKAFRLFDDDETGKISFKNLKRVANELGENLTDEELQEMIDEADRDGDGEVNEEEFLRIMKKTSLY
UniProt Q13144, whole entry: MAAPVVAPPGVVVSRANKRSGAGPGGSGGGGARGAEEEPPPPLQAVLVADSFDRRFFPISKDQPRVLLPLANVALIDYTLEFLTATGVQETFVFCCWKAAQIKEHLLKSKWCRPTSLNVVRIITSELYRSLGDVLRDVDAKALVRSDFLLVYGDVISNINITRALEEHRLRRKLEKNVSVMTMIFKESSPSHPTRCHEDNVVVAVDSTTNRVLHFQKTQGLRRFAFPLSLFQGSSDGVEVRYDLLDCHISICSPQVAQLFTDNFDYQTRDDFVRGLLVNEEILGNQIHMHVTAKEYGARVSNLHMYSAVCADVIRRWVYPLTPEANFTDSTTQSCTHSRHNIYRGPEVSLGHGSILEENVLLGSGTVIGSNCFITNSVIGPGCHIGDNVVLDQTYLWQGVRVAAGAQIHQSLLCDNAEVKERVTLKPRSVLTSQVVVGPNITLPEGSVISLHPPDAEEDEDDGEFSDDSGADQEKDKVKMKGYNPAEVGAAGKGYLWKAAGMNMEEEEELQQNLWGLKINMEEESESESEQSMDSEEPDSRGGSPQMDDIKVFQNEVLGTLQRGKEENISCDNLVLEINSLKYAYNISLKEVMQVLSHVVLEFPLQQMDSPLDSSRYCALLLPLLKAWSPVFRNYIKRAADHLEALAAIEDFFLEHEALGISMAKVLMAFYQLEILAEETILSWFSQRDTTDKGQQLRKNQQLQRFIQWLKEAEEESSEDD
UniProt Q12769: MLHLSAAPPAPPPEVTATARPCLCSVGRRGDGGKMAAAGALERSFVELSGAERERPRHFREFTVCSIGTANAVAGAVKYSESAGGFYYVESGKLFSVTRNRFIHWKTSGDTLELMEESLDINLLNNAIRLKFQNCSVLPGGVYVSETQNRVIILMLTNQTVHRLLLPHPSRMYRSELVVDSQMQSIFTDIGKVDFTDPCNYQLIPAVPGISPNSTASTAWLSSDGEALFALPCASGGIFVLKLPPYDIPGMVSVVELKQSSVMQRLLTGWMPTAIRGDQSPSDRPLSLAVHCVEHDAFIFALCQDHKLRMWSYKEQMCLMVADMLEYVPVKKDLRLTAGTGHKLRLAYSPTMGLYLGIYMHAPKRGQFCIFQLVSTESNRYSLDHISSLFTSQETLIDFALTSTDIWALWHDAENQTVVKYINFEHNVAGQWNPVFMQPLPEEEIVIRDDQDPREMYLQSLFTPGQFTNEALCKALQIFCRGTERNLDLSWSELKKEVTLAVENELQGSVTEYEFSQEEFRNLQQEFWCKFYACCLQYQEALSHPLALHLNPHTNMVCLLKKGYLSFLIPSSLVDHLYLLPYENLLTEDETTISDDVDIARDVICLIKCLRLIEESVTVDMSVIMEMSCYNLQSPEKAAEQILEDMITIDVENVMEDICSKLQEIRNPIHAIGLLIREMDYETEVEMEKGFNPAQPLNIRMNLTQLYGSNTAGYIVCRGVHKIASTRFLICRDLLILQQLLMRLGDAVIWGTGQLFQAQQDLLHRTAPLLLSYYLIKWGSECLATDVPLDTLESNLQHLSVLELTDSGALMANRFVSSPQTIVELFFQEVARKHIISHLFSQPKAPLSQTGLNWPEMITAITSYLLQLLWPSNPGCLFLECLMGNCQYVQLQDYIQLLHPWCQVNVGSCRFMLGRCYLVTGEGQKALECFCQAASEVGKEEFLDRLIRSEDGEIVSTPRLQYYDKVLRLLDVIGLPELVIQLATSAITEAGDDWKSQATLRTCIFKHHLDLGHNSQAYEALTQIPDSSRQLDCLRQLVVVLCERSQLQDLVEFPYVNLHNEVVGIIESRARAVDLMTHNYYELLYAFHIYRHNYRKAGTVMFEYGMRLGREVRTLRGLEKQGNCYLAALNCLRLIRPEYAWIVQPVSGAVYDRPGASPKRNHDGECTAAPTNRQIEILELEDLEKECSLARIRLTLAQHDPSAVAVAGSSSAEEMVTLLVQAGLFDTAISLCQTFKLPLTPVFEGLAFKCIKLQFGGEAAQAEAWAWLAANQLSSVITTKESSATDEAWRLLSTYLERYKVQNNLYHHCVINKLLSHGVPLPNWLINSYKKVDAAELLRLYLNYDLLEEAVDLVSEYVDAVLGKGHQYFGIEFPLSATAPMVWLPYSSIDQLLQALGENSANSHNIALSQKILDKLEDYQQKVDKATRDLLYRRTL
UniProt Q04864: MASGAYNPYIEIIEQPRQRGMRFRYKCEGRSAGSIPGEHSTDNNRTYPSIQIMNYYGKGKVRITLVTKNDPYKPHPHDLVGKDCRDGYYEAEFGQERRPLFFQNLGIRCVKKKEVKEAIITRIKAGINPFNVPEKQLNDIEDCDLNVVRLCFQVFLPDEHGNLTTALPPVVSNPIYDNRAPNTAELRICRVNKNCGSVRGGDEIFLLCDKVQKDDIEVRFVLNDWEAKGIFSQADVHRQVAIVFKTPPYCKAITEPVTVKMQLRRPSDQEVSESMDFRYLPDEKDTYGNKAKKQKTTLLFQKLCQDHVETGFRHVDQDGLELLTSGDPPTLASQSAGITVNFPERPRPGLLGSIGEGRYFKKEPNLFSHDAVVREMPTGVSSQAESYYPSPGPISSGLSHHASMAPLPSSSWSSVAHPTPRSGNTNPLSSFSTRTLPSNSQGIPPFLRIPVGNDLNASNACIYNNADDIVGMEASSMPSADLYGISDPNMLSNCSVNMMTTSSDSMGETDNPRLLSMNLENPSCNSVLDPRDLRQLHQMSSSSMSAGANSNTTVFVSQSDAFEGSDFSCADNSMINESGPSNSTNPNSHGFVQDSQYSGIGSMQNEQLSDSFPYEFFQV
UniProt Q01085: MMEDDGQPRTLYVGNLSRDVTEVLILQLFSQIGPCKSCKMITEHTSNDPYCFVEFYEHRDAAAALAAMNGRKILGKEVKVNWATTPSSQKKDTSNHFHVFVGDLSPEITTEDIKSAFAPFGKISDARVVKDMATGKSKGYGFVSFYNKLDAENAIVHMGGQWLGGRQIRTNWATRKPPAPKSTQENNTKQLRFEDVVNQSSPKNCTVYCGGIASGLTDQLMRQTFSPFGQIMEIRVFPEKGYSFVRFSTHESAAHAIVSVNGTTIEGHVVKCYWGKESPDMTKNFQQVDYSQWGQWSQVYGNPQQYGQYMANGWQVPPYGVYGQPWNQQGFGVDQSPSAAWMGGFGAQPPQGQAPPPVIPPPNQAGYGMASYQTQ
UniProt Q04725: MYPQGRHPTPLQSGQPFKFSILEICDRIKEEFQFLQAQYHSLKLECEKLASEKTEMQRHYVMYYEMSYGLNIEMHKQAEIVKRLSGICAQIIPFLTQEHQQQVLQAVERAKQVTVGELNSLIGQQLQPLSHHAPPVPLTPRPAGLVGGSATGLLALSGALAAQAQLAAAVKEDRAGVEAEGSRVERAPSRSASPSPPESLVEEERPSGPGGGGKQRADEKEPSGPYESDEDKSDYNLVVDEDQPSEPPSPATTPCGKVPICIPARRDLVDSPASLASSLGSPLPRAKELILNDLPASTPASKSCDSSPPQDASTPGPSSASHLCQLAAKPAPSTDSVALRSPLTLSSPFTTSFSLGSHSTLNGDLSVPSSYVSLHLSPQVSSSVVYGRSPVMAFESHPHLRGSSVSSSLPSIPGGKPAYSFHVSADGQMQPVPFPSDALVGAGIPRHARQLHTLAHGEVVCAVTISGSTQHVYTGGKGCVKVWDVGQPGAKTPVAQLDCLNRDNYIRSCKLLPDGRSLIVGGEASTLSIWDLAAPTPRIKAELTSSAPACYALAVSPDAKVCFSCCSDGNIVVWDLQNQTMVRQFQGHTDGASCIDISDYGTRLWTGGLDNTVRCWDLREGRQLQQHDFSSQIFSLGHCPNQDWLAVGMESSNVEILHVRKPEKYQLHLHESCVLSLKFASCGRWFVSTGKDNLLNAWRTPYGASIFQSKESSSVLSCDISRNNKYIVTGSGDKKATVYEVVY
UniProt P99999: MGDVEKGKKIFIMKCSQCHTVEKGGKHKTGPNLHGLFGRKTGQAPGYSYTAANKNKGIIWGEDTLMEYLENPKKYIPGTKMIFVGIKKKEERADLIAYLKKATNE

The other results are listed elsewhere or left out. Most entries show no effect beyond the scatter of the controls.

Compound in the test: CN[C@@H]1C[C@H]2O[C@@](C)([C@@H]1OC)n1c3ccccc3c3c4c(c5c6ccccc6n2c5c31)C(=O)NC4 [staurosporine]
The experiment in a line: log2 fold change of tryptic peptide abundance, ligand vs vehicle (limited proteolysis) (log2 ratio); higher = more trypsin-susceptible (destabilized). Particulars: ligand concentration: 20 uM; sample: K562 cleared lysate; digestion: 4 min, 22 C (HT-PELSA RT4min, Orbitrap Astral).
Regarding “SLC20A2 (peptide sequence: SPISNGTFGFDGHTR, peptide start residue: 324) (UniProt Q08357)”, the log2 fold change was 0.885.

Turning to “C19orf57 (peptide sequence: VSPQASVVLEHR, peptide start residue: 475) (UniProt Q0VDD7)”, the log2 fold change amounted to 0.254.

For the target “CAP1 (peptide sequence: HAEMVHTGLK, peptide start residue: 72) (UniProt Q01518)”, the log2 fold change came to 0.62.

In the case of “PTH1 (peptide sequence: LTEEELR, peptide start residue: 256) (UniProt Q03431)”, the log2 fold change is 0.019.

As to “EML5 (peptide sequence: QVYKEDLPQLK, peptide start residue: 644) (UniProt Q05BV3)”, the log2 fold change is 0.0513. Then “UniProt Q03181 (peptide sequence: CQCTTVETVR, peptide start residue: 249)”, with 0.303; and “HSPA14 (peptide sequence: SFKHDVR, peptide start residue: 246) (UniProt Q0VDF9)”, with 0.496; and “SSRP1 (peptide sequence: IKSDHPGISITDLSKK, peptide start residue: 565) (UniProt Q08945)”, with 0.237.

In the case of “UniProt Q08170 (peptide sequence: RDGSYGSGR, peptide start residue: 75)”, the log2 fold change was -0.43. Then “GOLGA3 (peptide sequence: SQGTSAEGSVR, peptide start residue: 107) (UniProt Q08378)”, with -0.449. The result for “UniProt Q12798 (peptide sequence: LFDDDETGKISFK, peptide start residue: 112)” reads -0.3. For “UniProt Q06732 (peptide sequence: SSLTVHHR, peptide start residue: 705)”, the log2 fold change worked out at 0.231.

As for “CDC16 (peptide sequence: ELLESLPLSK, peptide start residue: 183) (UniProt Q13042)”, the log2 fold change was -0.439.

With “MDM2 (peptide sequence: NGCIVHGK, peptide start residue: 447) (UniProt Q00987)”, the log2 fold change is 0.536. Then “EIF2B5 (peptide sequence: WCRPTSLNVVR, peptide start residue: 111) (UniProt Q13144)”, with -0.504; and “TLE1 (peptide sequence: SPMVGFDPPPHMR, peptide start residue: 416) (UniProt Q04724)”, with -0.0618; and “DST (peptide sequence: FILADGASQGMAAFRPR, peptide start residue: 7388) (UniProt Q03001)”, with 0.171.

“NUP160 (peptide sequence: QLVVVLCER, peptide start residue: 1036) (UniProt Q12769)”: the log2 fold change was -0.211. The result for “REL (peptide sequence: RPLFFQNLGIR, peptide start residue: 98) (UniProt Q04864)” reads 0.144; that for “TIAL1 (peptide sequence: VNWATTPSSQKK, peptide start residue: 78) (UniProt Q01085)”, -0.216. With “ZNF816 (peptide sequence: SMMEFSSTR, peptide start residue: 69) (UniProt Q0VGE8)”, the log2 fold change was found to be 0.295.

“TLE2 (peptide sequence: VPICIPAR, peptide start residue: 258) (UniProt Q04725)”: the log2 fold change is -0.237. For the target “CRYZ (peptide sequence: VHACGVNPVETYIR, peptide start residue: 42) (UniProt Q08257)”, the log2 fold change is -0.509. “PAK1 (peptide sequence: SVIEPLPVTPTR, peptide start residue: 204) (UniProt Q13153)”: the log2 fold change was determined as 0.0207. “CYCS (peptide sequence: TGPNLHGLFGR, peptide start residue: 29) (UniProt P99999)”: the log2 fold change stood at 0.57.

In the case of “UniProt Q12872 (peptide sequence: LEELMKPLK, peptide start residue: 310)”, the log2 fold change came out at 0.412. The result for “DLG1 (peptide sequence: NLSEIENVHGFVSHSHISPIK, peptide start residue: 141) (UniProt Q12959)” reads -0.398. Turning to “UniProt Q06055 (peptide sequence: STSQLLSRPLSAVVLK, peptide start residue: 16)”, the log2 fold change stood at 0.606. Then “UniProt Q02386 (peptide sequence: SYTNDASYR, peptide start residue: 219)”, with -0.536.
